Measurements reported in patent US7119109B2, “Heteroarylheteroalkylamine derivatives and their use as inhibitors of nitric oxide synthase” (Astrazeneca AB, priority 2001, dated 2006).
Where a name gives a salt, the structure may show the parent alone. Some of these results come from one statement about several compounds together. At least one compound was matched to its structure with a doubt left.

Tests used:
Type in all cases: biochemical
Recombinant human iNOS = target: T1, Recombinant human iNOS (Homo sapiens, UniProt P35228); experiment: Screen 2: recombinant human NO synthase inhibition, L-[3H]citrulline formation (iNOS); settings: recombinant human enzyme expressed in E. coli; 60 min pre-incubation with NADPH, 3 μM [3H]arginine; read-out: IC50 against iNOS
T1 construct: made in house; host or cells: E. coli (lysate)

Recombinant human eNOS = target: T2, Recombinant human eNOS (Homo sapiens, UniProt P29474); experiment: Screen 2: recombinant human NO synthase inhibition, L-[3H]citrulline formation (eNOS); settings: iNOS and nNOS versus eNOS, recombinant human enzymes
T2 construct: made in house; host or cells: E. coli (lysate)

Recombinant human nNOS = target: T3, Recombinant human nNOS (Homo sapiens, UniProt P29475); experiment: Screen 2: recombinant human NO synthase inhibition, L-[3H]citrulline formation (nNOS); settings: recombinant human enzyme expressed in E. coli; 60 min pre-incubation with NADPH, 3 μM [3H]arginine; read-out: IC50 against nNOS
T3 construct: made in house; host or cells: E. coli (lysate)

Compound | IC50 (Recombinant human iNOS) | selectivity with respect to the inhibition of eNOS (Recombinant human eNOS) | IC50 (Recombinant human nNOS)
6-Trifluoromethyl-2-{3-[1-methylaminohexyl]thio}nicotinonitrile hydrochloride [Example 2] | < 10 µM | good selectivity | < 10 µM
CCCC(CCNC)Sc1nc(C)ccc1C#N (stereo not drawn) [Example 1, 6-Methyl-2-{3-[1-methylaminohexyl]thio}nicotinonitrile dihydrochloride] | < 10 µM | good selectivity | < 10 µM
CCC(CCNC)Oc1nc(C(F)(F)F)ccc1C#N.Cl (stereo not drawn) [Example 3, 2-[1-Ethyl-3-(methylamino)propoxy]-6-(trifluoromethyl)-3-pyridinecarbonitrile hydrochloride] | < 10 µM | good selectivity | < 10 µM
CCC(CCNC)Sc1nc(C)ccc1C#N.Cl (stereo not drawn) [Example 4, 2-[[1-Ethyl-3-(methylamino)propyl]thio]-6-methyl-3-pyridinecarbonitrile hydrochloride] | < 10 µM | good selectivity | < 10 µM
CNCCC(Sc1nc(C(F)(F)F)ccc1C#N)C1CCCC1 (stereo not drawn) [Example 5, 2-[1-Cyclopentyl-3-(methylamino)thiopropyl]-6-(trifuoromethyl)-3-pyridinecarbonitrile] | < 10 µM | good selectivity | < 10 µM
CNSCCC(c1nc(C)ccc1C#N)C1CCCC1 (stereo not drawn) [Example 6, 2-[1-Cyclopentyl-3-(methylamino)thiopropyl]-6-methyl-3-pyridinecarbonitrile] | < 10 µM | good selectivity | < 10 µM
CNCC[C@@H](Oc1nc(C(F)(F)F)ccc1C#N)C(F)(F)F.Cl [Example 7, (R)-2-(3-Methylamino-1-trifluoromethylpropoxy)-6-trifluoromethyl-nicotinonitrile hydrochloride] | < 10 µM | good selectivity | < 10 µM
CNCC[C@@H](Oc1nc(C)c(F)cc1C#N)C(F)(F)F.Cl [Example 8, (R)-5-Fluoro-6-methyl-2-(3-methylamino-1-trifluoromethylpropoxy)nicotinonitrile hydrochloride] | < 10 µM | good selectivity | < 10 µM
CCc1nc(O[C@H](CCNC)C(F)(F)F)c(C#N)cc1F.Cl [Example 9, (R)-6-Ethyl-5-fluoro-2-(3-methylamino-1-trifluoromethylpropoxy)nicotinonitrile hydrochloride] | < 10 µM | good selectivity | < 10 µM
CNCCC(Oc1nc(C)ccc1C#N)C(F)(F)F.Cl (stereo not drawn) [Example 10, 6-Methyl-2-(3-methylamino-1-trifluoromethylpropoxy)nicotinonitrile hydrochloride] | < 10 µM | good selectivity | < 10 µM
Cl.N#Cc1ccc(C(F)(F)F)nc1OC(CCN)C(F)(F)F (stereo not drawn) [Example 11, 2-(3-Amino-1-trifluoromethylpropoxy)-6-trifluoromethylnicotinonitrile hydrochloride] | < 10 µM | good selectivity | < 10 µM
CCc1nc(SC(CC)CCNC)c(C#N)cc1F (stereo not drawn) [Example 12, 5-Fluoro-6-ethyl-2-{3-[1-methylaminopentyl]thio}nicotinonitrile dihydrochloride] | < 10 µM | good selectivity | < 10 µM
CCC(CCNC)Sc1nc(C(F)(F)F)ccc1C#N (stereo not drawn) [Example 13, 6-Trifluoromethyl-2-{3-[1-methylaminopentyl]thio}nicotinonitrile hydrochloride] | < 10 µM | good selectivity | < 10 µM
C=CCC(CCNC)Sc1nc(C)ccc1C#N (stereo not drawn) [Example 14, 6-Methyl-2-{3-[1-methylaminohex-5-enyl]thio}nicotinonitrile oxalate] | < 10 µM | good selectivity | < 10 µM
N#Cc1ccc(C(F)(F)F)nc1OC(CCN)C(F)(F)C(F)(F)F.O=C(O)/C=C/C(=O)O (stereo not drawn) [Example 15, 2-[1-(2-Aminoethyl)-2,2,3,3,3-pentafluoropropoxy]-6-trifluoromethyl-nicotinonitrile fumarate] | < 10 µM | good selectivity | < 10 µM
Cc1ccc(C#N)c(OC(CCN)C(F)(F)C(F)(F)F)n1 (stereo not drawn) [Example 16, 2-[1-(2-Aminoethyl)-2.2,3,3,3-pentafluoropropoxy]-6-methyl-nicotinonitrile fumarate] | < 10 µM | good selectivity | < 10 µM
